Assay type in all cases: biochemical
Common to all, as to conditions: recombinant purified enzyme; 100 nM wortmannin + 5 µM compound

For one assay, the system named is T1, PI3K p110α.
T1 construct: purchased Millipore (Billerica, MA)
Description: PI3K activity assay (PIP3 production, Millipore kit) in combination with wortmannin, p110α. On the procedure:
(§1) The production of phosphatidylinositol (3,4,5)-triphosphate (PIP3) by the four class I PI3K isoenzymes (p110 α, β, γ, δ) was assessed using the PI3 Kinase Activity/Inhibitor Assay Kit (Millipore, Billerica, MA) according to the manufacturer's instructions. This assay works on the principle that the PH domain of the protein GRP-1 binds PIP3 with high affinity and specificity. This protein binds to the glutathione plate and captures either the PIP3 generated as part of the kinase reaction or the biotinylated-PIP3 tracer included in the kit. The captured biotinylated-PIP3 is detected using streptavidin-HRP conjugate and a colorimetric read out (OD 450).
(§2) The class I PI3Ks are heterodimeric enzymes formed by association of a p110 catalytic subunit with a p85 regulatory subunit. There are 4 variants of the p110 catalytic subunit designated p110α, β, δ or γ [22]. […] Briefly, in this assay the PIP3 generated as part of the kinase reaction or the biotinylated-PIP3 tracer included in the kit is captured on a glutathione plate via its interaction with the pleckstrin homology (PH) domain of the glutathione S-transferase (GST)-fusion protein general receptor for phosphoinositides-1 (GRP-1). The captured biotinylated-PIP3 is then detected using a streptavidin-HRP conjugate and a colorimetric read out.

Another assay concerns T2, PI3K p110γ.
T2 construct: purchased Millipore (Billerica, MA)
Description: PI3K activity assay (PIP3 production, Millipore kit) in combination with wortmannin, p110γ. On the procedure: as §1, §2

The subject of a further assay is T3, PI3K p110δ.
T3 construct: purchased Millipore (Billerica, MA)
Description: PI3K activity assay (PIP3 production, Millipore kit) in combination with wortmannin, p110δ. On the procedure: as §1, §2

For another assay, the system named is T4, PI3K p110β.
T4 construct: purchased Millipore (Billerica, MA)
Description: PI3K activity assay (PIP3 production, Millipore kit) in combination with wortmannin, p110β. On the procedure:
as §1, §2

As for `O=C(CCCCCCC(=O)Nc1ccccc1)NO` [SAHA, vorinostat, reference compound], in the assay on PI3K p110α, the “Agonist activity: effect on inhibition of PI3K p110α by wortmannin” value is recorded as “acted as an agonist”. Moreover, the “Agonist activity: effect on inhibition of PI3K p110γ by wortmannin” value with PI3K p110γ is recorded as “activated”. Further, the “Agonist activity: effect on inhibition of PI3K p110δ by wortmannin” value with PI3K p110δ was “activated”. Moreover, the “Agonist activity: effect on inhibition of PI3K p110β by wortmannin” value in the assay on PI3K p110β is on record as “activated”.

(Values after article PMC3906007, “Discovery of a Small Molecule Agonist of Phosphatidylinositol 3-Kinase p110α That Reactivates Latent HIV-1” (PLoS ONE, 2014).)
